This is an account of results in paper PMC4298136.

These are yes or no findings as the source states them, for the method shown. In cells and extracts the contact can be indirect. Some results given as binding are weak or reduced against the parent protein; the word gives no strength.

The target in the experiment is T1, Dvl-2 (mouse (endogenous in AKC14 and AKC17 cells)) (UniProt Q60838).
T1 sequence: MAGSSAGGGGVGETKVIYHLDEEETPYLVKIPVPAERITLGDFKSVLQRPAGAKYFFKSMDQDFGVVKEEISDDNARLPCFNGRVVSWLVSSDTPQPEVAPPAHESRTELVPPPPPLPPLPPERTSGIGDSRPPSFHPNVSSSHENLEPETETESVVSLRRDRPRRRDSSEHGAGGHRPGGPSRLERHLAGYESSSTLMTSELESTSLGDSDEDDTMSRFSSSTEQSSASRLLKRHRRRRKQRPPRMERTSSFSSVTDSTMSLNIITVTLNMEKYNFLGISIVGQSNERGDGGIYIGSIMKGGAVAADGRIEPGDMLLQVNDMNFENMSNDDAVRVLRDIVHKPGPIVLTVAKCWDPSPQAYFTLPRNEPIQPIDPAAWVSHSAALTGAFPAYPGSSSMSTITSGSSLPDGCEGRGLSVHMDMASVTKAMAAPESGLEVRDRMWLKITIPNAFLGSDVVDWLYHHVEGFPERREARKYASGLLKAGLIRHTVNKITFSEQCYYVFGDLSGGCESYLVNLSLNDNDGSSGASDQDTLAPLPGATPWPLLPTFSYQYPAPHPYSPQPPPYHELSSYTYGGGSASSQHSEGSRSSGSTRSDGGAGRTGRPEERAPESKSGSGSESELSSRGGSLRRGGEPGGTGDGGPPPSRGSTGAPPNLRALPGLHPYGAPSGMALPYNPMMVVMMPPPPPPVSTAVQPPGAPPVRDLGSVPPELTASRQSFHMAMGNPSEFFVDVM
Description: co-IP; AKC14 and AKC17 cells expressing control or ATDC shRNA; which protein was precipitated is not told in the main text.

B1: ataxia telangiectasia group D complementing gene (ATDC) (protein, UniProt Q14134 1-588)
chain: MEAADASRSNGSSPEARDARSPSGPSGSLENGTKADGKDAKTTNGHGGEAAEGKSLGSALKPGEGRSALFAGNEWRRPIIQFVESGDDKNSNYFSMDSMEGKRSPYAGLQLGAAKKPPVTFAEKGELRKSIFSESRKPTVSIMEPGETRRNSYPRADTGLFSRSKSGSEEVLCDSCIGNKQKAVKSCLVCQASFCELHLKPHLEGAAFRDHQLLEPIRDFEARKCPVHGKTMELFCQTDQTCICYLCMFQEHKNHSTVTVEEAKAEKETELSLQKEQLQLKIIEIEDEAEKWQKEKDRIKSFTTNEKAILEQNFRDLVRDLEKQKEEVRAALEQREQDAVDQVKVIMDALDERAKVLHEDKQTREQLHSISDSVLFLQEFGALMSNYSLPPPLPTYHVLLEGEGLGQSLGNFKDDLLNVCMRHVEKMCKADLSRNFIERNHMENGGDHRYVNNYTNSFGGEWSAPDTMKRYSMYLTPKGGVRTSYQPSSPGRFTKETTQKNFNNLYGTKGNYTSRVWEYSSSIQNSDNDLPVVQGSSSFSLKGYPSLMRSQSPKAQPQTWKSGKQTMLSHYRPFYVNKGNGIGSNEAP
For the molecule B1, the binding entry is on record as “binds”.
